Measured values reported in publication PMC7186457.

Target: FLAG-L4 (ribosomal protein L4) (Escherichia coli (expressed in BL21(DE3) rne131)) (UniProt P60723)
Assay: EMSA
Settings: EMSA: 30 C, 20 min, native 5% PAGE, ~2 ng RNA, 0.7-5.5 uM L4, buffer not given (cited method); recombinant protein; protein details: N-terminal FLAG; label: internal [alpha-32P]UTP; probe letters rebuilt from the primers and the genome

Question: For “GGGUUGCCCUUCUGUAGCCAUCACCAGAGCCAAACCGAUUAGAUUCAAUGUGAUCUAUUUGUUUGCUAUAUCUUAAUUUUGCCUUUUGCAAAGGUCAUCUCUCGUUUAUUUACUUGUUUUAGUAAAUGAUGGUGCUUGCAUAUAUAUCUGGCGAAUUAAUCGGUAUAGCAGAUGUAAUAUUCACAGGGAUCACUGUAAUUAAAAUAAAUGAAGGAUUAUGUAAUGGAAAACUUUAAACAUCUCCCUGAACCGUUC [tnaC-tnaA transcribed spacer RNA (gel shift)]”, which Kd is on record?
Answer: 2100 nM

For at least one entry, the source does not settle the construct or the ends of the probe.
